The text below walks through data of article PMC5419741.

Sequences of proteins named here, by UniProt entry; tags and fusion partners are left off.
UniProt P06730, whole entry: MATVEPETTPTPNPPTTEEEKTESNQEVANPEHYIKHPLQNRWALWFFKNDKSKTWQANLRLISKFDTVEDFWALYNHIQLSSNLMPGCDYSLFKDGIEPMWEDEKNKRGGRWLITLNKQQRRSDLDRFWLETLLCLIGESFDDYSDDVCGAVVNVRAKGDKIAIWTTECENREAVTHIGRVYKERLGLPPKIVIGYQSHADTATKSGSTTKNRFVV

In data set [1] the test system is LARP1 DM15 Y883 mutant Y883A (Homo sapiens). As to the kind of experiment: EMSA. Particulars: 5' m7Gppp cap; recombinant protein; residues 796-946; label: 32P in cap.
For another data set, the target named is eIF4E (Homo sapiens) (UniProt P06730). As to the kind of experiment: competition with a labelled probe. Particulars: displaced by low-nM DM15, high-uM eIF4E needed to displace DM15; 5' m7Gppp cap; Competition assays: 20 mM Tris pH 8, 150 mM NaCl, 10% glycerol, 1 mM DTT, 0.5 ug BSA, 0.5 ug tRNA, 30 min on ice, native gel; recombinant protein; residues 1-217; protein details: His6-MBP removed by TEV; label: 32P in cap.

Data set [2] relates to LARP1 DM15 (Homo sapiens). As to the kind of experiment: EMSA. Conditions: recombinant protein; residues 796-946; label: 5' 32P. In general terms: A gel shift assay detects complexes by their altered migration in electrophoresis.

For part of these data: Weaker means in comparison with the reference protein, sequence or condition of that experiment. For part of these data: The exact form of at least one protein or probe is not confirmed.

What is called Kd is a measure of binding affinity in units of concentration. With “CCUCUUUUCCGUGGCGCCUCGGAGGCGUUCAGCUGCUUCAAG [m7Gppp-RPS6 42mer (capped TOP)]”, the Kd in data set [1] is more than 20 µM. Besides, in the data set with eIF4E (Homo sapiens), the binding result is “binds more weakly”.
For the sequence “CUCUCUUCCUCGGCGCUGCCUACGGAGGUGGCAGCCAUCUCC [RPL32 42mer uncapped]”, the binding result in data set [2] was “binds more weakly”.
